No constants are given. Whether binding was seen depends on the method and setting. Binding seen in cells or lysates may run through a third protein. Some entries that bind do so weakly or less than the wild type.

The record followed here is paper PMC6908726.

Conditions in all cases: remark: other sources report otherwise
For experiment [1], the target named is T1, Beclin1 (mouse (endogenous in liver and BMDM)), O88597.
T1 chain: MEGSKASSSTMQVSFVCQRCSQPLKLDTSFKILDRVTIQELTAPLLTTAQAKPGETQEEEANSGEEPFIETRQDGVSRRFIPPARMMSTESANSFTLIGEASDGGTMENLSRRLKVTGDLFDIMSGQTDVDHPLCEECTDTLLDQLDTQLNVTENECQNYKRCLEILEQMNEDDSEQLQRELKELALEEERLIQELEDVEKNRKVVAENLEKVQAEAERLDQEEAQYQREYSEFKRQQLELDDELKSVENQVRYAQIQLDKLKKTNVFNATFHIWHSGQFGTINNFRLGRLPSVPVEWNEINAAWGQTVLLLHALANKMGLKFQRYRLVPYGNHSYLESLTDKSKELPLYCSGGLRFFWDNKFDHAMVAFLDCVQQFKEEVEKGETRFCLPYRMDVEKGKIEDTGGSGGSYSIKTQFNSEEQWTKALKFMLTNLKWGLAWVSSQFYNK
Briefly: co-IP; livers of LPS-treated iUVRAG^FS mice (Supplementary Fig. 2b, not shown); told only as 'similar results'.

Experiment [2] concerns the target T1, Beclin1 (mouse (endogenous in liver and …)). Briefly: co-IP; BMDMs from iUVRAG^FS mice, PBS or LPS (100 ng/ml) for 4 h, with or without Dox; IP with anti-Beclin1; lysis in 20 mM Tris pH 7.5, 150 mM NaCl, 1 mM EDTA, 2% Triton X-100; western blot. Background: Immunoblotting shows a protein as a band on a membrane.
Experiment [3] deals with T2, β-catenin (mouse, endogenous) (mouse (endogenous in spleen and colon)), Q02248.
T2 chain: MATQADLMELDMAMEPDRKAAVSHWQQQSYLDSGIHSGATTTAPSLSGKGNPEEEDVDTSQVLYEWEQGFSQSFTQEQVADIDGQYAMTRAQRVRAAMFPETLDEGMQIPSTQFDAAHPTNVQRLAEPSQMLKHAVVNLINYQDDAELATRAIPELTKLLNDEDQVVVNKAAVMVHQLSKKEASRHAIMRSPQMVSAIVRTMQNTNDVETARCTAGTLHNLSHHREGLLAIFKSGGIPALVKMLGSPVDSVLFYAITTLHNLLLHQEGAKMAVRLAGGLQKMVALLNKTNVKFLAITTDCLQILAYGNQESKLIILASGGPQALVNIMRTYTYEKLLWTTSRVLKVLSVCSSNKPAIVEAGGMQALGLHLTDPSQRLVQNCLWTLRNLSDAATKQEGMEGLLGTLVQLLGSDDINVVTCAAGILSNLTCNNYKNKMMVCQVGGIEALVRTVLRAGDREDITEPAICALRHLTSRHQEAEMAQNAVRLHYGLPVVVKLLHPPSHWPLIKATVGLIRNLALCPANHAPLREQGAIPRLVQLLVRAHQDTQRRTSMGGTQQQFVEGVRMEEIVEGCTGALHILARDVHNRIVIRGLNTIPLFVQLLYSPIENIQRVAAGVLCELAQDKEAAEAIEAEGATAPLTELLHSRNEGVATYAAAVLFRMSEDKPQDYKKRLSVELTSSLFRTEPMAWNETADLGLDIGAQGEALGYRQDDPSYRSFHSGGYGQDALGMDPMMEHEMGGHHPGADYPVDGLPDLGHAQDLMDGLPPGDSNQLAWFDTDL
Briefly: co-IP; spleens from 18-month-old control and iUVRAG^FS mice on Dox (Fig. 7n; also Supplementary Fig. 7k, not shown); co-IP of β-catenin with LC3 and TCF4.

Experiment [4] has as its target T3, UVRAG (wild-type, endogenous mouse) (mouse (endogenous in liver and BMDM)), Q8K245.
T3 chain: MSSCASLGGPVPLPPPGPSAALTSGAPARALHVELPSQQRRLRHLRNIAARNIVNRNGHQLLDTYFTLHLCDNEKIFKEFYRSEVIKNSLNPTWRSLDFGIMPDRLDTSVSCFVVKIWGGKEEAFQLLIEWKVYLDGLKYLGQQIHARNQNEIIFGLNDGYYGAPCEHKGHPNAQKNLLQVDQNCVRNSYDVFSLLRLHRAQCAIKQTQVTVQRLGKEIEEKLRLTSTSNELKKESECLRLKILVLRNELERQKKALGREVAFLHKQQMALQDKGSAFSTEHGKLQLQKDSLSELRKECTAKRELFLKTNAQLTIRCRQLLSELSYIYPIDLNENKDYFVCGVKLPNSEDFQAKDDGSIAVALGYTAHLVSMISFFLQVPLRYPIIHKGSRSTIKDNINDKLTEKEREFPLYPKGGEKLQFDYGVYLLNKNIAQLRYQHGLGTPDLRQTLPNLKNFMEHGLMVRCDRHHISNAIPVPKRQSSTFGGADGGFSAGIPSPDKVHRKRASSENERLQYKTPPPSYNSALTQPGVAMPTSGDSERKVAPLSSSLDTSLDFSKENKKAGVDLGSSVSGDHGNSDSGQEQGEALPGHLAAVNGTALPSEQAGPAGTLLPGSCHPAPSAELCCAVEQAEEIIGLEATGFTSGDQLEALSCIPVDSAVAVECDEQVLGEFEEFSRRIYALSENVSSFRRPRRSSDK
In words: co-IP; liver of 48 h-starved control and Dox-treated/untreated iUVRAG^FS mice; IP with anti-UVRAG (C-term), IgG as negative control; lysis in 25 mM HEPES, 150 mM NaCl, 1 mM EDTA, 1% Triton X-100; western blot.

B1: Bcl-2, P10417 1-236 (protein)
chain: MAQAGRTGYDNREIVMKYIHYKLSQRGYEWDAGDADAAPLGAAPTPGIFSFQPESNPMPAVHRDMAARTSPLRPLVATAGPALSPVPPVVHLTLRRAGDDFSRRYRRDFAEMSSQLHLTPFTARGRFATVVEELFRDGVNWGRIVAFFEFGGVMCVESVNREMSPLVDNIALWMTEYLNRHLHTWIQDNGGWDAFVELYGPSMRPLFDFSWLSLKTLLSLALVGACITLGAYLGHK
B1: the binding entry in experiment [1] and in experiment [2] was “binds” each time.

B2: TCF4, Q924A0 1-459 (protein)
chain: MPQLNGGGGDDLGANDELISFKDEGEQEEKNSENSSAERDLADVKSSLVNESETNQDSSSDSEAERRPPPRSESFRDKSRESLEEAAKRQDGGLFKGPPYPGYPFIMIPDLTSPYLPNGSLSPTARTYLQMKWPLLDVQAGSLQSRQTLKDARSPSPAHIVSNKVPVVQHPHHVHPLTPLITYSNEHFTPGNPPPHLPADVDPKTGIPRPPHPPDISPYYPLSPGTVGQIPHPLGWLVPQQGQPVYPITTGGFRHPYPTALTVNASMSRFPPHMVPPHHTLHTTGIPHPAIVTPTVKQESSQSDVGSLHSSKHQDSKKEEEKKKPHIKKPLNAFMLYMKEMRAKVVAECTLKESAAINQILGRRWHALSREEQAKYYELARKERQLHMQLYPGWSARDNYGKKKKRKRDKQPGETNEHSECFLNPCLSLPPITDLSAPKKCRARFGLDQQNNWCGPCSL
For the molecule B2, the binding entry in experiment [3] was “binds”.

B3: Rubicon, Q80U62 1-956 (protein)
chain: MRPEGAGMDLGGGDGERLLEKSRREHWQLLGNLKTTVEGLVSANCPNVWSKYGGLERLCRDMQNILYHGLIHDQVCCRQADYWQFVKDIRWLSPHSALHVEKFISLHESDQSDTDSVSERAVAELWLQHSLQCHCLSAQLRPLLGDRQYIRKFYTETAFLLSDAHVTAMLQCLEAVEQNNPRLLAQIDASMFARKQESPLLVTKSQSLTALPGSTYTPPASYAQHSYFGSSSSLQSMPQSSHSSERRSTSFSLSGPSWQPQEDRECLSPAETQTTPAPLPSDSTLAQDSPLTAQEMSDSTLTSPLEASWVSSQNDSPSDVSEGPEYLAIGNPAPHGRTASCESHSSNGESSSSHLFSSSSSQKLESAASSLGDQEEGRQSQAGSVLRRSSFSEGQTAPVASGTKKSHIRSHSDTNIASRGAAGGPRNITIIVEDPIAEGGQYLCSGEGMFRRPSEGQSLISYLSEQDFGSCADLEKENAHFSISESLIAAIELMKCNMMSQCLEEEEVEEEDSDREIQELKQKIRLRRQQIRTKNLLPAYRETENGSFRVTSSSSQFSSRDSTQLSESGSAEDADDLEIQDADIRRSAVSNGKSSFSQNLSHCFLHSTSAEAVAMGLLKQFEGMQLPAASELEWLVPEHDAPQKLLPIPDSLPISPDDGQHADIYKLRIRVRGNLEWAPPRPQIIFNVHPAPTRKIAVAKQNYRCAGCGIRTDPDYIKRLRYCEYLGKYFCQCCHENAQMVVPSRILRKWDFSKYYVSNFSKDLLLKIWNDPLFNVQDINSALYRKVKLLNQVRLLRVQLYHMKNMFKTCRLAKELLDSFDVVPGHLTEDLHLYSLSDLTATKKGELGPRLAELTRAGAAHVERCMLCQAKGFICEFCQNEEDVIFPFELHKCRTCEECKACYHKTCFKSGRCPRCERLQARRELLAKQSLESYLSDYEEEPTEALALEATVLETT
As to B3, the binding result in experiment [4] is reported as “binds”.
